For part of these data: Construct, isoform or probe ends are uncertain for at least one entry. For part of these data: A negative result means that nothing was seen under these conditions.
Legend:
[1] = target: EPCAM (UniProt P16422); test: activity in cells; conditions: increasing polymerase activity with more EPCAM-expressing cells; indirect readout; protein on the cell surface; dose not given here
[2] = test system: DNA polymerase (species not stated); test: activity assay; conditions: polymerase elongation destroys hemin DNAzyme peroxidase activity; dose- and time-dependent; purified recombinant protein; folded or branched DNA
[3] = test system: DNA polymerase (species not stated); test: inhibition of the protein; conditions: purified recombinant protein, dose not given here

Sequences of proteins named here, by UniProt entry; tags and fusion partners are left off. Residues count along the entry.
UniProt P16422, 24-265: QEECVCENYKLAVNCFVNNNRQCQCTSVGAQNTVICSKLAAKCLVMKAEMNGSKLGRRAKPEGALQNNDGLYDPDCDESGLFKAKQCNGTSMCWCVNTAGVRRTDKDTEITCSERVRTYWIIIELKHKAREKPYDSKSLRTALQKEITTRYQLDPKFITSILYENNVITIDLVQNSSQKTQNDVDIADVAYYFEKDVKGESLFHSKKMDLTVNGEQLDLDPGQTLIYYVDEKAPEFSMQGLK

For “CAGACGCAACCTCTGTAGTGCAATGTACAGTATTG / CACTACAGAGGTTGCGTCTGTCCCACGTTGTCATGGGGGGTTGGCCTG [EPCAM aptamer/inverter recognition nanostructure]”, the “functional effect of the aptamer” value [1] was “active”.
With “CTGGGAGGGAGGGAGGGAATGCTAACGCATTGTCGATAGCTCTGTCGCTATCGACAATGCGTT [G-quadruplex hemin DNAzyme catalytic nanostructure 1]” the “activity on this sequence” value [2] was “active”.
In the case of “TGCAAGGCCGGCTTCGCGGGCAATGTACAGTATTG / CCCGCGAAGCCGGCCTTGCACATGCCGGAGCCGTTGTCGA / GAGTACCGCCCCCCGGTTTGGTACGGCGGCGGTGCGACAA [Recognition nanostructure + scrambled sequence]”, the “functional effect of the aptamer” value ([3]; no signal even with 10^11 copies of scrambled sequence, polymerase stays inhibited) is reported as “active”.
For “TGCAAGGCCGGCTTCGCGGGCAATGTACAGTATTG / CCCGCGAAGCCGGCCTTGCACATGCCGGAGCCGTTGTCGA / TCGACAACGGCTCCGGCATGTGCAAGGCCGGCTTCGCGGG [Recognition nanostructure + DNA target (human beta actin)]”, the “functional effect of the aptamer” value ([3]; target hybridisation activates polymerase (inhibition relieved)) was “not active”.
With “TGCAAGGCCGGCTTCGCGGGCAATGTACAGTATTG / CCCGCGAAGCCGGCCTTGCACATGCCGGAGCCGTTGTCGA / UCGACAACGGCUCCGGCAUGUGCAAGGCCGGCUUCGCGGG [Recognition nanostructure + RNA target (human beta actin)]” the “functional effect of the aptamer” value ([3]; RNA target relieves inhibition as efficiently as DNA target) was “not active”.
For “TGCAAGGCCGGCTTCGCGGGCAATGTACAGTATTG / CCCGCGAAGCCGGCCTTGCACATGCCGGAGCCGTTGTCGA [Recognition nanostructure (polymerase aptamer + inverter)]”, the “functional effect of the aptamer” value ([3]; binds and inhibits DNA polymerase, in solution and surface immobilised) was “active”.

Source: patent US20230159990
